{
  "sequences": {"note": "Amino acid sequences for entries named in this document (tags omitted). A change or cut given only in a name is not applied to a line headed by its entry. Residues count along the entry.", "UniProt Q9H4L7": "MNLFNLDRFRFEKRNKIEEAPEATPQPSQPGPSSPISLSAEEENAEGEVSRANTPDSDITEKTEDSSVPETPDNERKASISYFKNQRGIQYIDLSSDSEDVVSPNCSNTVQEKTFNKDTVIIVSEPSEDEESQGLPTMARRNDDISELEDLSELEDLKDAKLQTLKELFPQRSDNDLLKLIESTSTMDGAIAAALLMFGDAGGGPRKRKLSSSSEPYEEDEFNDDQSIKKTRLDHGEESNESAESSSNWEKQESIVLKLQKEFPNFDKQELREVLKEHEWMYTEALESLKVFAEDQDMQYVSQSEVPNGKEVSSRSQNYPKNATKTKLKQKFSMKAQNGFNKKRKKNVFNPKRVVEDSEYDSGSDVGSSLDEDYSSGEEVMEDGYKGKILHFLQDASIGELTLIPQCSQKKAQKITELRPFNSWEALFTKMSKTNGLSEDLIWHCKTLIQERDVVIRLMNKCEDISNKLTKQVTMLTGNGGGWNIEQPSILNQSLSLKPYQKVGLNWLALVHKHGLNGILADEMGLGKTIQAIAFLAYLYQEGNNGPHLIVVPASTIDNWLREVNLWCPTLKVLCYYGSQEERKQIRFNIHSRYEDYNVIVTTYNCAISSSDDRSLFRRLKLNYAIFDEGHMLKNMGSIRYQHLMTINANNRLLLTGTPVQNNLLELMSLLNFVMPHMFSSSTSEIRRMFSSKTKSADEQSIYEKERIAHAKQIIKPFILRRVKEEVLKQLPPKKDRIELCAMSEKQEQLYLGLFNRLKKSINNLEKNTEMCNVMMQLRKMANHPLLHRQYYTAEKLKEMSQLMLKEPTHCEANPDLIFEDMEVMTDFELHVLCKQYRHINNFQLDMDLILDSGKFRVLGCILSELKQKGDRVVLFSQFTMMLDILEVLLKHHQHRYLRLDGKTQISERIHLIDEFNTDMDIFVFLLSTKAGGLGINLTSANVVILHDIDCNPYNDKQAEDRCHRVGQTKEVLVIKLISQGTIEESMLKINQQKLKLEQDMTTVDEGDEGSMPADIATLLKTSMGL", "UniProt Q9BWU0, 647-671": "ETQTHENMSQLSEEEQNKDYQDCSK", "UniProt P51531, whole entry, looked up": "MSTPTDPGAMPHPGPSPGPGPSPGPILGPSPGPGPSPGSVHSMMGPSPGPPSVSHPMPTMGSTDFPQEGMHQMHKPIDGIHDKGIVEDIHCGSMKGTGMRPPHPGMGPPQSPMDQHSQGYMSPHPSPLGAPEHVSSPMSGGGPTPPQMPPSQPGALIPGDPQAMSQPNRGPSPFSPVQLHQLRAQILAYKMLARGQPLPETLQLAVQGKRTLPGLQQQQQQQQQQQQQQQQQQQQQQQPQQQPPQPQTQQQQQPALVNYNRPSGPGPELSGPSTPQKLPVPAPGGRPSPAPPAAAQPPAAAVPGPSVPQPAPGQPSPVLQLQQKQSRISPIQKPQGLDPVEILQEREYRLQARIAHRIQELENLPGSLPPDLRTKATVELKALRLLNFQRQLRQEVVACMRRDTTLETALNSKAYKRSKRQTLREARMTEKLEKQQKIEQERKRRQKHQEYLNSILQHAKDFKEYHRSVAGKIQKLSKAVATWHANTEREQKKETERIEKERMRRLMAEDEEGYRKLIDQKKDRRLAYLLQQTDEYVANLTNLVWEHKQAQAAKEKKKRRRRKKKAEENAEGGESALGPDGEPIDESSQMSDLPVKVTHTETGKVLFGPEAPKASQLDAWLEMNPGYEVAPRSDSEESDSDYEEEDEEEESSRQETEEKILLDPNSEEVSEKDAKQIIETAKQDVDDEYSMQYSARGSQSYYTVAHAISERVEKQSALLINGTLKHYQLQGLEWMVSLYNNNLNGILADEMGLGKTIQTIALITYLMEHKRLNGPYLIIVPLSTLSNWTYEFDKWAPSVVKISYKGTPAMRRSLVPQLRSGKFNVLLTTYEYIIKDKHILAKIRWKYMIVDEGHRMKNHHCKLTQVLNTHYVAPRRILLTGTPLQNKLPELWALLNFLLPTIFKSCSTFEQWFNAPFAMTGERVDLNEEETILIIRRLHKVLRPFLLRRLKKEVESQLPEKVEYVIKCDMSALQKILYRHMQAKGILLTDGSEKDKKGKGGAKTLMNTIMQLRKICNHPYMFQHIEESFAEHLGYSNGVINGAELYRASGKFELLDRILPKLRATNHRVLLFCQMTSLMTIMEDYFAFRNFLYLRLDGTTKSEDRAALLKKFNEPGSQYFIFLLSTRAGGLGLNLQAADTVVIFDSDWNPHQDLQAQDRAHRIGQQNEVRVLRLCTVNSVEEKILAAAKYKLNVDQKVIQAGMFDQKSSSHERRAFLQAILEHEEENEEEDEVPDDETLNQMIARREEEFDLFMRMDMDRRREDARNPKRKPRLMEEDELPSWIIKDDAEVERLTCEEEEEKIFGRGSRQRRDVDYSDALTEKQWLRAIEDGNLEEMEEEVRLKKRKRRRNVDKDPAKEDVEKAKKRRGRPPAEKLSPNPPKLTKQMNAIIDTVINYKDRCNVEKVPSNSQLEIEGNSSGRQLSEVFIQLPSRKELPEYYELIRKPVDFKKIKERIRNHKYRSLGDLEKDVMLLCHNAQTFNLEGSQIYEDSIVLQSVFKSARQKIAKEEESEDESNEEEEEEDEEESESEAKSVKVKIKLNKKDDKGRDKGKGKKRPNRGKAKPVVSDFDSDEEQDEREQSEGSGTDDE", "UniProt Q6IEG0": "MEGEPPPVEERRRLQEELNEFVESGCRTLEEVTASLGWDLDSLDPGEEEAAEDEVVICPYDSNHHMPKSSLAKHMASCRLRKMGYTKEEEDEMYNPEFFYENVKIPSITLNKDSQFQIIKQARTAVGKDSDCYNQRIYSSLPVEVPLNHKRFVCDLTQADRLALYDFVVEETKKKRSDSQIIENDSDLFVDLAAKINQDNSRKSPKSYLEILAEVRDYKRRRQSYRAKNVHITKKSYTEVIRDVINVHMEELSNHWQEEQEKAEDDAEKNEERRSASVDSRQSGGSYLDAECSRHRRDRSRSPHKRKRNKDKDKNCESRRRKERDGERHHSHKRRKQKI", "UniProt Q8N0X7, 389-414": "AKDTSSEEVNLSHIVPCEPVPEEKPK", "UniProt Q96SB8": "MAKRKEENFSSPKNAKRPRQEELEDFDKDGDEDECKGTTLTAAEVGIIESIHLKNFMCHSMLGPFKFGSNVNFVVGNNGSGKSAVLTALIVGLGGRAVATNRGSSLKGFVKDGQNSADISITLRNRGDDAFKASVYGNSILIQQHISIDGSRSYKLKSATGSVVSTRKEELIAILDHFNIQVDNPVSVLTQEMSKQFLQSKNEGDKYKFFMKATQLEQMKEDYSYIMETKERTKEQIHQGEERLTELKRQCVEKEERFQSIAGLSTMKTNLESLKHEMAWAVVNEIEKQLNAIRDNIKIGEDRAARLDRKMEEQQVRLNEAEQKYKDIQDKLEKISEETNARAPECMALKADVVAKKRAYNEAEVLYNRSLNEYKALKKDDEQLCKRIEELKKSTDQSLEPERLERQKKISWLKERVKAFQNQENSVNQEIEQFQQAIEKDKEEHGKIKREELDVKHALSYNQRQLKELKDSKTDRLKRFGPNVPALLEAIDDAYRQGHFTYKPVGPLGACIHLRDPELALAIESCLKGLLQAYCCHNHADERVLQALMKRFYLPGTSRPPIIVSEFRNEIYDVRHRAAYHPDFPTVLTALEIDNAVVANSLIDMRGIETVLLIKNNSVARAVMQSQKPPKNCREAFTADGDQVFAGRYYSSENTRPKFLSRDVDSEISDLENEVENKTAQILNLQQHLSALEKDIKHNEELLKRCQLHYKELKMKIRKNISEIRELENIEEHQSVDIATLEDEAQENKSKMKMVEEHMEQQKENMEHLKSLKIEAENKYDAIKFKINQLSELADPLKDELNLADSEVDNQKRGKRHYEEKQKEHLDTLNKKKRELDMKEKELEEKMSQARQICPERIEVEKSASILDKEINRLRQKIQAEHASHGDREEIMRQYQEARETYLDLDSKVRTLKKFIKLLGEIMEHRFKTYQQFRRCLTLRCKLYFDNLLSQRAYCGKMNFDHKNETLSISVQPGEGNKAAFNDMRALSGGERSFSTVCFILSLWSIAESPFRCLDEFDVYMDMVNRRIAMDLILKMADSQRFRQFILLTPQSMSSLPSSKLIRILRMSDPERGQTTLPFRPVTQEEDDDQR", "UniProt Q15043, 277-297": "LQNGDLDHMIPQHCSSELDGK", "UniProt Q9UBX3": "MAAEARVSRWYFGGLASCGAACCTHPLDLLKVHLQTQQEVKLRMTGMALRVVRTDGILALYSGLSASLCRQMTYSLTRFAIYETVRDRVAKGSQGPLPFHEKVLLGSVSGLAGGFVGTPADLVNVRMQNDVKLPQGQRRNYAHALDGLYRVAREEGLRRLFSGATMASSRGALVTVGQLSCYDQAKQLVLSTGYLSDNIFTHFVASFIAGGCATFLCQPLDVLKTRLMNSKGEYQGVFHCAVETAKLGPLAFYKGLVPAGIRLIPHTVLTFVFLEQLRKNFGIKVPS", "UniProt P63208, whole entry, looked up": "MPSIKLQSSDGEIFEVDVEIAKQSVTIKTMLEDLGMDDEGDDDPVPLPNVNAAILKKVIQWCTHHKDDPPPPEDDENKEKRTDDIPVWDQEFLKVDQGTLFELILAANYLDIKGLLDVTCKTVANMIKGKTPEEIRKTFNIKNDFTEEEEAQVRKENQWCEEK", "UniProt P12236": "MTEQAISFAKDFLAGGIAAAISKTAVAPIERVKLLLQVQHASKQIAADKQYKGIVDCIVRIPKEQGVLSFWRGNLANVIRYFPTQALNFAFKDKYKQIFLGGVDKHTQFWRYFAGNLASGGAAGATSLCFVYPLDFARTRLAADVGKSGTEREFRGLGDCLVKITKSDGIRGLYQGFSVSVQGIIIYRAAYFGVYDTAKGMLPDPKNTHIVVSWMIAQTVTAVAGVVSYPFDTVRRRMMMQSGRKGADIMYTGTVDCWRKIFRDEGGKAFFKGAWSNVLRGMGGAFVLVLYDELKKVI", "UniProt O95391": "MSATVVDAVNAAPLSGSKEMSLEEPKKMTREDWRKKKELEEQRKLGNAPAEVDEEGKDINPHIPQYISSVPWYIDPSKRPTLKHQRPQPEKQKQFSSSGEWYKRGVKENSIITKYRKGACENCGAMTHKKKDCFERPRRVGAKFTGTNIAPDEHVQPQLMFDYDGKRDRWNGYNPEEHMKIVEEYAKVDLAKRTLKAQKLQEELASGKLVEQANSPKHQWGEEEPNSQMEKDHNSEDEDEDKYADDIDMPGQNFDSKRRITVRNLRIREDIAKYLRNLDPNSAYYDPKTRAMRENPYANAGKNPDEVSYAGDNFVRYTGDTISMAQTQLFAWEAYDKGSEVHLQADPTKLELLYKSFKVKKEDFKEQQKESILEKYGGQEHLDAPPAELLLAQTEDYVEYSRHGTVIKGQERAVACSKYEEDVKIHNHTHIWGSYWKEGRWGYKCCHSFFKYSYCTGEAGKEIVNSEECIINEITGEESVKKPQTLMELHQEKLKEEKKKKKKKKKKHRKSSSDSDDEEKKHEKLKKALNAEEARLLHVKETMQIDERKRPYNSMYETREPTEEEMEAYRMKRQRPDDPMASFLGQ", "UniProt Q8TEQ0": "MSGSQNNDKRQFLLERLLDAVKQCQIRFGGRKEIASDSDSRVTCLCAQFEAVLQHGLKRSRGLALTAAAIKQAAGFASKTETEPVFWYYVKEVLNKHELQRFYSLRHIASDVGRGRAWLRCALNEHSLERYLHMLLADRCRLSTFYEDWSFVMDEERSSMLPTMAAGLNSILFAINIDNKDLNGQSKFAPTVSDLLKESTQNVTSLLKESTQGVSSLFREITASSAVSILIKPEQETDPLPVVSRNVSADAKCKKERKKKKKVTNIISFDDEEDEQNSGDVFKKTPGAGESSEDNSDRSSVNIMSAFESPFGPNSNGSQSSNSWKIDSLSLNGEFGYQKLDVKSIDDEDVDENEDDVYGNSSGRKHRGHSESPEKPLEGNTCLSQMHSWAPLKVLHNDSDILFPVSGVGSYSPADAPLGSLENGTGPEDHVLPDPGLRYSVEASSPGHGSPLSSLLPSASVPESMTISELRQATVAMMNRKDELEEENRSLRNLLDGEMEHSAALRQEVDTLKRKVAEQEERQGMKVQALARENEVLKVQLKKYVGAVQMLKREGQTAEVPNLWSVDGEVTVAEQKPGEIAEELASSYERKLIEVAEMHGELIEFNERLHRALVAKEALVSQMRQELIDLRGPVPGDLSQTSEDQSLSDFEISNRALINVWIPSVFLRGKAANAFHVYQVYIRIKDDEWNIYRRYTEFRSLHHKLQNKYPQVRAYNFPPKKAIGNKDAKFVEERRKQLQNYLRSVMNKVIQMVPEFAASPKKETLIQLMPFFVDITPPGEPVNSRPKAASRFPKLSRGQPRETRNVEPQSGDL", "UniProt Q9H936": "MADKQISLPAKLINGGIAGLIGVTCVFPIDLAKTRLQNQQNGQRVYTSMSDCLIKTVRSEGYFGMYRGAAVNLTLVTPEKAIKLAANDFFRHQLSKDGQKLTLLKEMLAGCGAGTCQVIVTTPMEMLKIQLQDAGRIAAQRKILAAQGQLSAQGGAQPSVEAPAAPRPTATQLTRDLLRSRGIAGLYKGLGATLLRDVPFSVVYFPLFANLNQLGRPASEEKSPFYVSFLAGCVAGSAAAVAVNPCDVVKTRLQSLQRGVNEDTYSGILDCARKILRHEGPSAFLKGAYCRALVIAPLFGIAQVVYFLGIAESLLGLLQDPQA"},
  "source": "the supplement of paper PMC11732987",
  "about": "“Enantioselective OTUD7B fragment discovery through chemoproteomics screening and high-throughput optimisation” (Communications Chemistry, 2025)",
  "note": "Some of the results follow. The data scatter; read single values as rough.",
  "data": [
    {"compound": "ClCC(=O)N[C@@H]1CCCc2ccccc12", "test": "log2 mean competition ratio of IA-DTB cysteine labelling (DMSO/compound) (log2 ratio); higher = stronger cysteine engagement by compound", "conditions": "50 µM; treatment time: 4 h; cell line lysate: HEK293T", "procedure": "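IA-DTB competitive cysteine chemoproteomics in HEK293T RIPA lysate. Lysates were treated with compound 29 or 30 at 50 or 200 µM for 4 h, then IA-DTB (500 µM, 1 h), trypsin-digested, NeutrAvidin-enriched and analysed by diaPASEF. Competition ratio = intensity DMSO / intensity compound (n=4 treated, n=64 DMSO); binding: mean log2 CR ≥ 1 and p ≤ 0.05 plus QC filters. Target is the cysteine site.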", "values": [
      {"target": "SMN2 C60", "log2 mean competition ratio": 0.121},
      {"target": "SMARCAD1 C462 (UniProt Q9H4L7)", "log2 mean competition ratio": -0.0878},
      {"target": "SPAG1 C380 (UniProt Q07617)", "log2 mean competition ratio": 0.195},
      {"target": "SLC4A1AP C723 (UniProt Q9BWU0)", "log2 mean competition ratio": -0.0314},
      {"target": "SMG1 C2673 (UniProt Q96Q15)", "log2 mean competition ratio": -0.187},
      {"target": "SLC25A28 C49 (UniProt Q96A46)", "log2 mean competition ratio": -0.141},
      {"target": "SKIL C268 (UniProt P12757)", "log2 mean competition ratio": -0.112},
      {"target": "SMARCA2 C399 (UniProt P51531)", "log2 mean competition ratio": -0.136},
      {"target": "SNRNP48 C26 (UniProt Q6IEG0)", "log2 mean competition ratio": -0.198},
      {"target": "SPART C405 (UniProt Q8N0X7)", "log2 mean competition ratio": -0.363},
      {"target": "SLC27A4 C232 (UniProt Q6P1M0)", "log2 mean competition ratio": 0.0559},
      {"target": "SORT1 C740 (UniProt Q99523)", "log2 mean competition ratio": 0.0508},
      {"target": "SMC6 C251 (UniProt Q96SB8)", "log2 mean competition ratio": -0.107},
      {"target": "SKA3 C20 (UniProt Q8IX90)", "log2 mean competition ratio": -0.0323},
      {"target": "SLC39A6 C303 (UniProt Q13433)", "log2 mean competition ratio": -0.00371},
      {"target": "SMYD2 C321 (UniProt Q9NRG4)", "log2 mean competition ratio": -0.338},
      {"target": "SMG7 C537 (UniProt Q92540)", "log2 mean competition ratio": -0.119},
      {"target": "SLC39A14 C290 (UniProt Q15043)", "log2 mean competition ratio": -0.366},
      {"target": "SLC6A15 C367", "log2 mean competition ratio": 0.147},
      {"target": "SLC25A10 C181 (UniProt Q9UBX3)", "log2 mean competition ratio": 0.0211},
      {"target": "SMU1 C298 (UniProt Q2TAY7)", "log2 mean competition ratio": -0.0818},
      {"target": "SMARCAL1 C62 (UniProt Q9NZC9)", "log2 mean competition ratio": 0.316},
      {"target": "SKP1 C160 (UniProt P63208)", "log2 mean competition ratio": -0.0753},
      {"target": "SLC25A6 C257 (UniProt P12236)", "log2 mean competition ratio": 0.39},
      {"target": "SLC39A10 C153 (UniProt Q9ULF5)", "log2 mean competition ratio": -0.374},
      {"target": "SLC1A5 C363 (UniProt Q15758)", "log2 mean competition ratio": -0.0559},
      {"target": "SLU7 C455 (UniProt O95391)", "log2 mean competition ratio": -0.243},
      {"target": "SNX29 C121 (UniProt Q8TEQ0)", "log2 mean competition ratio": 0.122},
      {"target": "SMARCAD1 C575 (UniProt Q9H4L7)", "log2 mean competition ratio": 0.244},
      {"target": "SMUG1 C131 (UniProt Q53HV7)", "log2 mean competition ratio": -0.0809},
      {"target": "SLC39A10 C598 (UniProt Q9ULF5)", "log2 mean competition ratio": -0.105},
      {"target": "SMC2 C585 (UniProt O95347)", "log2 mean competition ratio": 0.146},
      {"target": "SMG8 C555 (UniProt Q8ND04)", "log2 mean competition ratio": 0.0876},
      {"target": "SLC25A6 C57 (UniProt P12236)", "log2 mean competition ratio": 0.364},
      {"target": "SLC25A22 C271 (UniProt Q9H936)", "log2 mean competition ratio": -0.248},
      {"target": "SMG8 C861 (UniProt Q8ND04)", "log2 mean competition ratio": -0.0482},
      {"target": "SLC38A1 C131 (UniProt Q9H2H9)", "log2 mean competition ratio": 0.21},
      {"target": "SMG7 C345 (UniProt Q92540)", "log2 mean competition ratio": -0.126}
    ]}
  ]
}
